{"source": "patent US7220729B2", "about": "“Huntington's Disease Treatment” (Academia Sinica, priority 2004, dated 2007)", "test_system": "adenylyl cyclase", "assay": "Adenylyl cyclase activity assay on striatal membrane fractions", "type": "biochemical, mouse", "conditions": "striatal membranes of R6/2 mice compared with wild type mice", "note": "For at least one compound, name, drawing or mass did not settle the structure.", "data": [{"smiles": "C=C[C@@]1(C)CC(=O)[C@]2(O)[C@@]3(C)[C@@H](O)CCC(C)(C)[C@@H]3[C@H](O)[C@H](OC(C)=O)[C@@]2(C)O1", "note": "[forskolin]", "values": [{"measurement": "adenylyl cyclase activities induced by the compound, R6/2 vs wild type mice", "result": "much lower than those in the wild type mice"}]}]}
